Results taken from the supplement of paper PMC6078165.
± gives the standard deviation of the averaged measurements. Values are relative to the signal before dosing, not to a vehicle control; the signal also falls without drug.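 Fibroblast labels name human fibroblasts: mostly primary ones from tissues such as uterus (C12385, HUF), lung (H6013), bone (Hs27A), adrenal (HADF) and skin (WS1), plus mammary HMF and breast cancer-associated Hs343T. The cancer cells are basal-like or mesenchymal-like triple-negative breast cancer lines. The paper calls a changed response a hit when it shifts by more than 3x the replicate standard deviation. The tissue of the other fibroblasts is not given here.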

System: BT20
Experiment: relative JC-1 red fluorescence (viability) vs pre-drug, coculture with fibroblast (fraction); higher = more viable cancer cells
Experimental: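 JC-1 labelled TNBC cells cocultured 1:1 (1,500 cells each) with CellTrace Violet stained primary or stromal fibroblasts in 384-well plates in FluoroBrite medium, treated with one of 42 anticancer drugs at 0.1, 1, 10 or 100 uM. JC-1 red fluorescence (mitochondrial integrity in cancer cells only) was read by plate reader every 8 h for 72 h. Values are normalised to each well's pre-drug value. The stock of one drug was tenfold lower, so its dose labels may be too high.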

CC[C@]1(O)C[C@H]2CN(CCc3c([nH]c4ccccc34)[C@@](C(=O)OC)(c3cc4c(cc3OC)N(C=O)[C@H]3[C@@](O)(C(=O)OC)[C@H](OC(C)=O)[C@]5(CC)C=CCN6CC[C@]43[C@@H]65)C2)C1 [Vincristine]
relative JC-1 red fluorescence
Details | 8 h | 16 h | 24 h | 32 h | 40 h | 48 h | 56 h | 64 h | 72 h
0.1 µM, coculture fibroblast: C12385 | 0.875 ± 0.02 | 0.844 ± 0.042 | 0.838 ± 0.045 | 0.797 ± 0.036 | 0.761 ± 0.05 | 0.752 ± 0.055 | 0.753 ± 0.057 | 0.778 ± 0.057 | 0.795 ± 0.052
0.1 µM, coculture fibroblast: H6013 | 0.944 ± 0.011 | 0.955 ± 0.054 | 0.882 ± 0.058 | 0.892 ± 0.0041 | 0.9098 ± 0.0051 | 0.873 ± 0.078 | 0.933 ± 0.074 | 0.81 ± 0.048 | 0.779 ± 0.11
0.1 µM, coculture fibroblast: H6019 | 0.874 ± 0.021 | 0.816 ± 0.044 | 0.823 ± 0.062 | 0.771 ± 0.061 | 0.727 ± 0.072 | 0.722 ± 0.078 | 0.704 ± 0.071 | 0.688 ± 0.072 | 0.673 ± 0.07
0.1 µM, coculture fibroblast: H6076 | 0.925 ± 0.047 | 0.941 ± 0.026 | 0.887 ± 0.01 | 0.882 ± 0.017 | 0.878 ± 0.036 | 0.884 ± 0.023 | 0.895 ± 0.048 | 0.919 ± 0.046 | 0.923 ± 0.053
0.1 µM, coculture fibroblast: H6231 | 0.963 ± 0.014 | 0.887 ± 0.033 | 0.814 ± 0.064 | 0.759 ± 0.077 | 0.75 ± 0.092 | 0.727 ± 0.1 | 0.711 ± 0.11 | 0.711 ± 0.1 | 0.712 ± 0.099
0.1 µM, coculture fibroblast: HADF | 0.945 ± 0.022 | 0.917 ± 0.015 | 0.939 ± 0.013 | 0.9169 ± 0.004 | 0.906 ± 0.012 | 0.8855 ± 0.0016 | 0.92339 ± 0.0008 | 0.942 ± 0.009 | 0.9397 ± 0.006
0.1 µM, coculture fibroblast: HCFa | 0.941 ± 0.041 | 0.901 ± 0.068 | 0.891 ± 0.085 | 0.85 ± 0.095 | 0.821 ± 0.099 | 0.805 ± 0.097 | 0.8 ± 0.096 | 0.778 ± 0.098 | 0.732 ± 0.12
0.1 µM, coculture fibroblast: HCPF | 0.973 ± 0.031 | 0.907 ± 0.018 | 0.847 ± 0.017 | 0.813 ± 0.032 | 0.796 ± 0.019 | 0.752 ± 0.035 | 0.751 ± 0.046 | 0.765 ± 0.072 | 0.761 ± 0.078
0.1 µM, coculture fibroblast: HHSteC | 0.947 ± 0.03 | 0.916 ± 0.056 | 0.899 ± 0.088 | 0.814 ± 0.098 | 0.785 ± 0.1 | 0.772 ± 0.13 | 0.764 ± 0.12 | 0.762 ± 0.11 | 0.748 ± 0.11
0.1 µM, coculture fibroblast: HMF | 0.915 ± 0.081 | 0.884 ± 0.035 | 0.779 ± 0.02 | 0.732 ± 0.0083 | 0.684 ± 0.017 | 0.645 ± 0.036 | 0.653 ± 0.031 | 0.646 ± 0.043 | 0.664 ± 0.048
0.1 µM, coculture fibroblast: HPFa | 0.921 ± 0.011 | 0.822 ± 0.052 | 0.779 ± 0.1 | 0.859 ± 0.16 | 0.854 ± 0.16 | 0.838 ± 0.15 | 0.834 ± 0.15 | 0.836 ± 0.13 | 0.82 ± 0.14
0.1 µM, coculture fibroblast: HUF | 0.874 ± 0.032 | 0.775 ± 0.038 | 0.72736 ± 0.0007 | 0.65 ± 0.011 | 0.605 ± 0.024 | 0.564 ± 0.027 | 0.548 ± 0.037 | 0.544 ± 0.048 | 0.537 ± 0.058
0.1 µM, coculture fibroblast: Hs5 | 0.936 ± 0.071 | 0.9222 ± 0.0071 | 0.8914 ± 0.0064 | 0.874 ± 0.014 | 0.85861 ± 0.00046 | 0.847 ± 0.014 | 0.863 ± 0.018 | 0.857 ± 0.012 | 0.8689 ± 0.0031
0.1 µM, coculture fibroblast: Hs27A | 0.752 ± 0.047 | 0.763 ± 0.018 | 0.961 ± 0.019 | 0.948 ± 0.04 | 0.916 ± 0.017 | 0.912 ± 0.013 | 0.935 ± 0.026 | 0.929 ± 0.031 | 0.924 ± 0.023
0.1 µM, coculture fibroblast: Hs343T | 0.922 ± 0.062 | 0.831 ± 0.05 | 0.744 ± 0.049 | 0.694 ± 0.029 | 0.665 ± 0.019 | 0.641 ± 0.026 | 0.616 ± 0.024 | 0.612 ± 0.013 | 0.5996 ± 0.0021
0.1 µM, coculture fibroblast: WS1 | 0.865 ± 0.026 | 0.816 ± 0.058 | 0.789 ± 0.088 | 0.731 ± 0.095 | 0.678 ± 0.089 | 0.652 ± 0.094 | 0.631 ± 0.1 | 0.623 ± 0.12 | 0.634 ± 0.12
1 µM, coculture fibroblast: C12385 | 0.903 ± 0.01 | 0.8529 ± 0.0069 | 0.781 ± 0.025 | 0.72 ± 0.03 | 0.658 ± 0.029 | 0.627 ± 0.037 | 0.582 ± 0.042 | 0.549 ± 0.044 | 0.535 ± 0.053
1 µM, coculture fibroblast: H6013 | 0.812 ± 0.068 | 0.952 ± 0.031 | 0.87 ± 0.0099 | 0.856 ± 0.012 | 0.8261 ± 0.0014 | 0.8216 ± 0.00088 | 0.81 ± 0.018 | 0.789 ± 0.0014 | 0.7909 ± 0.0044
1 µM, coculture fibroblast: H6019 | 0.8672 ± 0.0052 | 0.8259 ± 0.0077 | 0.7843 ± 0.0023 | 0.741 ± 0.016 | 0.709 ± 0.034 | 0.701 ± 0.037 | 0.675 ± 0.056 | 0.662 ± 0.071 | 0.655 ± 0.077
1 µM, coculture fibroblast: H6076 | 0.9901 ± 0.0051 | 0.917 ± 0.024 | 0.8291 ± 0.0036 | 0.812 ± 0.0091 | 0.786 ± 0.033 | 0.758 ± 0.029 | 0.752 ± 0.023 | 0.762 ± 0.025 | 0.75 ± 0.024
1 µM, coculture fibroblast: H6231 | 0.788 ± 0.021 | 0.9271 ± 0.004 | 0.806 ± 0.015 | 0.717 ± 0.037 | 0.659 ± 0.035 | 0.591 ± 0.037 | 0.584 ± 0.037 | 0.547 ± 0.051 | 0.534 ± 0.063
1 µM, coculture fibroblast: HADF | 0.818 ± 0.15 | 0.857 ± 0.1 | 0.856 ± 0.019 | 0.804 ± 0.029 | 0.734 ± 0.067 | 0.672 ± 0.074 | 0.631 ± 0.077 | 0.603 ± 0.078 | 0.569 ± 0.078
1 µM, coculture fibroblast: HCFa | 0.954 ± 0.013 | 0.912 ± 0.012 | 0.833 ± 0.0092 | 0.773 ± 0.015 | 0.72 ± 0.019 | 0.676 ± 0.04 | 0.647 ± 0.04 | 0.624 ± 0.042 | 0.589 ± 0.035
1 µM, coculture fibroblast: HCPF | 0.801 ± 0.072 | 0.966 ± 0.045 | 0.877 ± 0.042 | 0.827 ± 0.015 | 0.7557 ± 0.0013 | 0.701 ± 0.013 | 0.646 ± 0.029 | 0.628 ± 0.015 | 0.6007 ± 0.0038
1 µM, coculture fibroblast: HHSteC | 0.9507 ± 0.0027 | 0.8752 ± 0.0034 | 0.861 ± 0.012 | 0.795 ± 0.01 | 0.736 ± 0.012 | 0.707 ± 0.018 | 0.692 ± 0.01 | 0.674 ± 0.0089 | 0.6371 ± 0.0053
1 µM, coculture fibroblast: HMF | 0.858 ± 0.062 | 0.927 ± 0.025 | 0.775 ± 0.013 | 0.71 ± 0.019 | 0.6579 ± 0.0041 | 0.605 ± 0.0072 | 0.555 ± 0.013 | 0.529 ± 0.0081 | 0.5013 ± 0.0022
1 µM, coculture fibroblast: HPFa | 0.9465 ± 0.0091 | 0.933 ± 0.024 | 0.926 ± 0.023 | 0.8368 ± 0.001 | 0.837 ± 0.024 | 0.775 ± 0.062 | 0.767 ± 0.056 | 0.751 ± 0.055 | 0.715 ± 0.054
1 µM, coculture fibroblast: HUF | 0.9116 ± 0.0061 | 0.816 ± 0.015 | 0.745 ± 0.028 | 0.675 ± 0.037 | 0.623 ± 0.042 | 0.566 ± 0.04 | 0.519 ± 0.068 | 0.496 ± 0.08 | 0.479 ± 0.093
1 µM, coculture fibroblast: Hs5 | 0.718 ± 0.021 | 0.971 ± 0.029 | 0.85 ± 0.014 | 0.7843 ± 0.0019 | 0.7211 ± 0.0016 | 0.672 ± 0.0098 | 0.641 ± 0.0087 | 0.598 ± 0.011 | 0.5797 ± 0.0049
1 µM, coculture fibroblast: Hs27A | 0.82508 ± 0.00049 | 0.795 ± 0.092 | 0.9483 ± 0.0066 | 0.886 ± 0.15 | 0.955 ± 0.023 | 0.926 ± 0.014 | 0.903 ± 0.024 | 0.872 ± 0.028 | 0.83 ± 0.035
1 µM, coculture fibroblast: Hs343T | 0.908 ± 0.11 | 0.936 ± 0.052 | 0.793 ± 0.046 | 0.73 ± 0.048 | 0.67 ± 0.043 | 0.618 ± 0.032 | 0.557 ± 0.019 | 0.537 ± 0.021 | 0.509 ± 0.022
1 µM, coculture fibroblast: WS1 | 0.907 ± 0.034 | 0.859 ± 0.042 | 0.799 ± 0.058 | 0.737 ± 0.058 | 0.691 ± 0.048 | 0.656 ± 0.029 | 0.62 ± 0.017 | 0.59 ± 0.0083 | 0.5787 ± 0.003
